Reference: PMC5662874

Key:
[1] = molecular target: zebrafish catalytic inactive FLAG-Caspa mutant (C230A) (zebrafish); experiment: co-IP; called pull down by the paper; HEK293T cells co-transfected, lysed in 50 mM Tris-HCl, 150 mM NaCl, 1% NP40; 1 mg lysate with ANTI-FLAG M2 Affinity Gel 2 h at 4°C; blots probed for FLAG and mCherry
[2] = molecular target: zebrafish wild-type FLAG-Caspa (caspase a) (zebrafish); experiment: as above

binding [1]: no binding | binding [2]: binds
B1: zebrafish Caiap-mCherry (CARD- and ANK-containing Inflammasome Adaptor Protein fused to mCherry) (protein, UniProt Q5TYM7 1-744)
chain: MGSTSFTNPYAIEVIQMKRSELVSGILNPEDLLDLLIANGVLQPDIRVLVSDLTVREEKNSRMLNILISRGERACRIFFYPCLKRAEPDLYQHMRTYVGGVNEGIRDARRQLIGYLLEKDKQGLVKNSKPERIHPKSTANEPNNEPLNKQILKSESNHHDAILEAISSGDLYLLQELTKELDVNSVLSSNDTLLHHAAEYGKEAIVYFLLRQGAKLDLKDKEGRTALHRAAQRGHTAVAVALAKAGADIHATDQTSKTPLHLAAQNGHEGCVKALVHEEKKSLKNQTTVLHMAAIEDNATLAEVLLRNGALVDAQDGQRKTALHHAVRHGNEKTAAVLLKAGAQVDSRIVDAAFQLNRKSLLSLFLQHVHESMSQTEINAALFKAVQRNLDAVVAALIEHGADVNSCNELGYTPVLLAAELGNGEAFKVLVSKKAKLDERLPNQMSSLHLAVQSGSIQIAQILLHKGIDPNISGPKDQTPLHLSASHNQPAMMALLLRVGAQLNPVTQDGFTPLHLASQNGHTEAVAQLLEAKADVHAKDKQGRTALHWAAEQGEVAIIQSLLAAGAYSNASEREKKTPLHLAAAEGHTKAVSALLAGKAKVGAKDMDGCSPLHYAARNGKERAGSVLLASSKSKNVDDKNVWRRTALHLAAEHGHEALVGILLENKAKINALDNNKDTPLHCACKTGHLGTVQRLINWTNGERANLQATNNVKKNALQVAEAGDTEAHENISTLLKKKMFLVK

These are yes or no findings as the source states them, for the method shown. In cells and extracts the contact can be indirect. For some assays here: A result given as binding can be weak or reduced; the word gives no strength. Tags and fused reporters may be left off the sequences shown.
